Laboratory results reported in paper PMC10907362.

T1: Flag-USP40 (in HLMVECs) (human) (UniProt Q9NVE5)
T1 sequence: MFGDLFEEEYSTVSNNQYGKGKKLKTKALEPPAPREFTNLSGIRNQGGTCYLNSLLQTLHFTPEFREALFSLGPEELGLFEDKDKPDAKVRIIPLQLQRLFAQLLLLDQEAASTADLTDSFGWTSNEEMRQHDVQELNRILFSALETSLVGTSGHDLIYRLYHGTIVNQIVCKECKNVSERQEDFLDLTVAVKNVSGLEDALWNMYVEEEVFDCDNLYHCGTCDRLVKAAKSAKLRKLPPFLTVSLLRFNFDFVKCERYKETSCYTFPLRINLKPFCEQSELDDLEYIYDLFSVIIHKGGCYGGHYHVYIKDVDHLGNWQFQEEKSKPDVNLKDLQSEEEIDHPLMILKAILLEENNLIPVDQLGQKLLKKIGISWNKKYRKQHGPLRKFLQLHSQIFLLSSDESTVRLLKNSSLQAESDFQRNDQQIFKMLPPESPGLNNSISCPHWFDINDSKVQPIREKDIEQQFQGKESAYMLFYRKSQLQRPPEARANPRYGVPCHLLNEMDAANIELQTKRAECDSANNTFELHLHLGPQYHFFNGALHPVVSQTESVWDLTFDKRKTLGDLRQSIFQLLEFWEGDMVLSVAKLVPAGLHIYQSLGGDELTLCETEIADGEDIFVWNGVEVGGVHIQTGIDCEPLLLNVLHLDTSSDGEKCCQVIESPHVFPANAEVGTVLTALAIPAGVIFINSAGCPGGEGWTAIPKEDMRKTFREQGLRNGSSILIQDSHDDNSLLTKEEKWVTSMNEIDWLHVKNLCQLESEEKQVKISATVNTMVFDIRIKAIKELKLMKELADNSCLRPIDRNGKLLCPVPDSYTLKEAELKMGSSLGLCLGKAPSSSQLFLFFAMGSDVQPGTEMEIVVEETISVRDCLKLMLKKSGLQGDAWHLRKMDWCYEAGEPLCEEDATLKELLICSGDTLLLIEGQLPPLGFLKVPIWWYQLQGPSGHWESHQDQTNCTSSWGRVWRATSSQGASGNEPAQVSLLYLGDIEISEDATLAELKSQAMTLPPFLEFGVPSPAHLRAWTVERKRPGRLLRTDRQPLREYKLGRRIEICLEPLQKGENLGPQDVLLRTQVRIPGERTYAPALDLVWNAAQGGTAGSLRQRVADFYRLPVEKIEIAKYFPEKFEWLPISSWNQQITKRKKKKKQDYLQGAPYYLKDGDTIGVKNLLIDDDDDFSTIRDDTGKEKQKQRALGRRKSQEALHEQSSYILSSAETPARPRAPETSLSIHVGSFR


Target: T1, Flag-USP40 (in HLMVECs) (human)
Test: affinity purification with mass spectrometry; Flag-USP40 immunoprecipitated from transfected HLMVECs with FLAG-M2 affinity gel; eluted under reducing conditions, SDS-PAGE, Coomassie, bands excised, in-gel trypsin digestion, LC-MS

Binder	binding
Protein phosphatase 1B (protein, UniProt O75688 1-479) MGAFLDKPKTEKHNAHGAGNGLRYGLSSMQGWRVEMEDAHTAVVGIPHGLEDWSFFAVYDGHAGSRVANYCSTHLLEHITTNEDFRAAGKSGSALELSVENVKNGIRTGFLKIDEYMRNFSDLRNGMDRSGSTAVGVMISPKHIYFINCGDSRAVLYRNGQVCFSTQDHKPCNPREKERIQNAGGSVMIQRVNGSLAVSRALGDYDYKCVDGKGPTEQLVSPEPEVYEILRAEEDEFIILACDGIWDVMSNEELCEYVKSRLEVSDDLENVCNWVVDTCLHKGSRDNMSIVLVCFSNAPKVSDEAVKKDSELDKHLESRVEEIMEKSGEEGMPDLAHVMRILSAENIPNLPPGGGLAGKRNVIEAVYSRLNPHRESDGASDEAEESGSQGKLVEALRQMRINHRGNYRQLLEEMLTSYRLAKVEGEESPAEPAATATSSNSDAGNPVTMQESHTESESGLAELDSSNEDAGTKMSGEKI	binds
Peroxiredoxin-1 (protein, UniProt Q06830 1-199) MSSGNAKIGHPAPNFKATAVMPDGQFKDISLSDYKGKYVVFFFYPLDFTFVCPTEIIAFSDRAEEFKKLNCQVIGASVDSHFCHLAWVNTPKKQGGLGPMNIPLVSDPKRTIAQDYGVLKADEGISFRGLFIIDDKGILRQITVNDLPVGRSVDETLRLVQAFQFTDKHGEVCPAGWKPGSDTIKPDVQKSKEYFSKQK	binds
Protein-glutamine gamma-glutamyltransferase 2 (protein, UniProt P21980 1-687) MAEELVLERCDLELETNGRDHHTADLCREKLVVRRGQPFWLTLHFEGRNYEASVDSLTFSVVTGPAPSQEAGTKARFPLRDAVEEGDWTATVVDQQDCTLSLQLTTPANAPIGLYRLSLEASTGYQGSSFVLGHFILLFNAWCPADAVYLDSEEERQEYVLTQQGFIYQGSAKFIKNIPWNFGQFEDGILDICLILLDVNPKFLKNAGRDCSRRSSPVYVGRVVSGMVNCNDDQGVLLGRWDNNYGDGVSPMSWIGSVDILRRWKNHGCQRVKYGQCWVFAAVACTVLRCLGIPTRVVTNYNSAHDQNSNLLIEYFRNEFGEIQGDKSEMIWNFHCWVESWMTRPDLQPGYEGWQALDPTPQEKSEGTYCCGPVPVRAIKEGDLSTKYDAPFVFAEVNADVVDWIQQDDGSVHKSINRSLIVGLKISTKSVGRDEREDITHTYKYPEGSSEEREAFTRANHLNKLAEKEETGMAMRIRVGQSMNMGSDFDVFAHITNNTAEEYVCRLLLCARTVSYNGILGPECGTKYLLNLNLEPFSEKSVPLCILYEKYRDCLTESNLIKVRALLVEPVINSYLLAERDLYLENPEIKIRILGEPKQKRKLVAEVSLQNPLPVALEGCTFTVEGAGLTEEQKTVEIPDPVEAGEEVKVRMDLLPLHMGLHKLVVNFESDKLKAVKGFRNVIIGPA	binds
Interferon-induced GTP-binding protein Mx2 (protein, UniProt P20592 1-715) MSKAHKPWPYRRRSQFSSRKYLKKEMNSFQQQPPPFGTVPPQMMFPPNWQGAEKDAAFLAKDFNFLTLNNQPPPGNRSQPRAMGPENNLYSQYEQKVRPCIDLIDSLRALGVEQDLALPAIAVIGDQSSGKSSVLEALSGVALPRGSGIVTRCPLVLKLKKQPCEAWAGRISYRNTELELQDPGQVEKEIHKAQNVMAGNGRGISHELISLEITSPEVPDLTIIDLPGITRVAVDNQPRDIGLQIKALIKKYIQRQQTINLVVVPCNVDIATTEALSMAHEVDPEGDRTIGILTKPDLMDRGTEKSVMNVVRNLTYPLKKGYMIVKCRGQQEITNRLSLAEATKKEITFFQTHPYFRVLLEEGSATVPRLAERLTTELIMHIQKSLPLLEGQIRESHQKATEELRRCGADIPSQEADKMFFLIEKIKMFNQDIEKLVEGEEVVRENETRLYNKIREDFKNWVGILATNTQKVKNIIHEEVEKYEKQYRGKELLGFVNYKTFEIIVHQYIQQLVEPALSMLQKAMEIIQQAFINVAKKHFGEFFNLNQTVQSTIEDIKVKHTAKAENMIQLQFRMEQMVFCQDQIYSVVLKKVREEIFNPLGTPSQNMKLNSHFPSNESSVSSFTEIGIHLNAYFLETSKRLANQIPFIIQYFMLRENGDSLQKAMMQILQEKNRYSWLLQEQSETATKRRILKERIYRLTQARHALCQFSSKEIH	binds
Thyroid hormone receptor-associated protein 3 (protein, UniProt Q9Y2W1 1-955) MSKTNKSKSGSRSSRSRSASRSRSRSFSKSRSRSRSLSRSRKRRLSSRSRSRSYSPAHNRERNHPRVYQNRDFRGHNRGYRRPYYFRGRNRGFYPWGQYNRGGYGNYRSNWQNYRQAYSPRRGRSRSRSPKRRSPSPRSRSHSRNSDKSSSDRSRRSSSSRSSSNHSRVESSKRKSAKEKKSSSKDSRPSQAAGDNQGDEAKEQTFSGGTSQDTKASESSKPWPDATYGTGSASRASAVSELSPRERSPALKSPLQSVVVRRRSPRPSPVPKPSPPLSSTSQMGSTLPSGAGYQSGTHQGQFDHGSGSLSPSKKSPVGKSPPSTGSTYGSSQKEESAASGGAAYTKRYLEEQKTENGKDKEQKQTNTDKEKIKEKGSFSDTGLGDGKMKSDSFAPKTDSEKPFRGSQSPKRYKLRDDFEKKMADFHKEEMDDQDKDKAKGRKESEFDDEPKFMSKVIGANKNQEEEKSGKWEGLVYAPPGKEKQRKTEELEEESFPERSKKEDRGKRSEGGHRGFVPEKNFRVTAYKAVQEKSSSPPPRKTSESRDKLGAKGDFPTGKSSFSITREAQVNVRMDSFDEDLARPSGLLAQERKLCRDLVHSNKKEQEFRSIFQHIQSAQSQRSPSELFAQHIVTIVHHVKEHHFGSSGMTLHERFTKYLKRGTEQEAAKNKKSPEIHRRIDISPSTFRKHGLAHDEMKSPREPGYKAEGKYKDDPVDLRLDIERRKKHKERDLKRGKSRESVDSRDSSHSRERSAEKTEKTHKGSKKQKKHRRARDRSRSSSSSSQSSHSYKAEEYTEETEEREESTTGFDKSRLGTKDFVGPSERGGGRARGTFQFRARGRGWGRGNYSGNNNNNSNNDFQKRNREEEWDPEYTPKSKKYYLHDDREGEGSDKWVSRGRGRGAFPRGRGRFMFRKSSTSPKWAHDKFSGEEGEIEDDESGTENREEKDNIQPTTE	binds
Isoform 12 of Sorbin and SH3 domain-containing protein 2 (protein, UniProt O94875-12 1-731) MSVTLTSVKRVQSSPNLLAAGRDSQSPDSAWRSYNDGNQETLNGDATYSSLAAKGFRSVRPNLQDKRSPTQSQITVNGNSGGAVSPMSYYQRPFSPSAYSLPASLNSSIVMQHGTSLDSTDTYPQHAQSLDGTTSSSIPLYRSSEEEKRVTVIKAPHYPGIGPVDESGIPTAIRTTVDRPKDWYKTMFKQIHMVHKPDDDTDMYNTPYTYNAGLYNPPYSAQSHPAAKTQTYRPLSKSHSDNSPNAFKDASSPVPPPHVPPPVPPLRPRDRSSTEKHDWDPPDRKVDTRKFRSEPRSIFEYEPGKSSILQHERPPPLPTTPTPVPREPGRKPLSSSRLGEVTGSPSPPPRSGAPTPSSRAPALSPTRPPKKPLDYVQDHSSGVFNEASLYQSSIDRSLERPMSSASMASDFRKRRKSEPAVGPPRGLGDQSASRTSPGRVDLPGSSTTLTKSFTSSSPSSPSRAKDRESPRSYSSTLTDMGRSAPRERRGTPEKEKLPAKAVYDFKAQTSKELSFKKGDTVYILRKIDQNWYEGEHHGRVGIFPISYVEKLTPPEKAQPARPPPPAQPGEIGEAIAKYNFNADTNVELSLRKGDRVILLKRVDQNWYEGKIPGTNRQGIFPVSYVEVVKKNTKGAEDYPDPPIPHSYSSDRIHSLSSNKPQRPVFTHENIQGGGEPFQALYNYTPRNEDELELRESDVIDVMEKCDDGWFVGTSRRTKFFGTFPGNYVKRL	binds
Interferon-induced GTP-binding protein Mx1 (protein, UniProt P20591 1-662) MVVSEVDIAKADPAAASHPLLLNGDATVAQKNPGSVAENNLCSQYEEKVRPCIDLIDSLRALGVEQDLALPAIAVIGDQSSGKSSVLEALSGVALPRGSGIVTRCPLVLKLKKLVNEDKWRGKVSYQDYEIEISDASEVEKEINKAQNAIAGEGMGISHELITLEISSRDVPDLTLIDLPGITRVAVGNQPADIGYKIKTLIKKYIQRQETISLVVVPSNVDIATTEALSMAQEVDPEGDRTIGILTKPDLVDKGTEDKVVDVVRNLVFHLKKGYMIVKCRGQQEIQDQLSLSEALQREKIFFENHPYFRDLLEEGKATVPCLAEKLTSELITHICKSLPLLENQIKETHQRITEELQKYGVDIPEDENEKMFFLIDKVNAFNQDITALMQGEETVGEEDIRLFTRLRHEFHKWSTIIENNFQEGHKILSRKIQKFENQYRGRELPGFVNYRTFETIVKQQIKALEEPAVDMLHTVTDMVRLAFTDVSIKNFEEFFNLHRTAKSKIEDIRAEQEREGEKLIRLHFQMEQIVYCQDQVYRGALQKVREKELEEEKKKKSWDFGAFQSSSATDSSMEEIFQHLMAYHQEASKRISSHIPLIIQFFMLQTYGQQLQKAMLQLLQDKDTYSWLLKERSDTSDKRKFLKERLARLTQARRRLAQFPG	binds

Results are given in words; binding and its absence hold for the method and conditions named. Binding seen in cells or lysates may run through a third protein. These calls come from enrichment with a bait or labelling near it, and not all partners need be listed. Tags and fused reporters may be left off the sequences shown.
